# According to paper PMC7819943, “Rice protein-binding microarrays: a tool to detect cis-acting elements near promoter regions in rice”:
# Chains of the proteins cited; added tags and fusions are not shown.
# UniProt Q0JBA9, entry or part of it: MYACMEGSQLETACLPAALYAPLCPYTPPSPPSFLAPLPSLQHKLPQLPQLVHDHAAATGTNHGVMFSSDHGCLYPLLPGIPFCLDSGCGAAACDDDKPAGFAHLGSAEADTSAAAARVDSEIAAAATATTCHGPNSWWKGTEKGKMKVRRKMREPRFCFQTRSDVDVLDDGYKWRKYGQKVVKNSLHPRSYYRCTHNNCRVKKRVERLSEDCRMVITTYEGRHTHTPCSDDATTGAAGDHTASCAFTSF
# The list shows a part of the results.
# Biological target: OsWRKY34 (Oryza sativa, UniProt Q0JBA9 1-250)
# Assay: protein-binding microarray (RPBM); PBS, 2% BSA, 51.3 ng/ul salmon testes DNA, 50 uM zinc acetate, 200 nM TF, 25 C, 1 h; high values mean tight binding
# Conditions: protein: recombinant; tags: N-terminal polyhistidine and DsRed monomer fusion (pET32a); label: CyDye5-dUTP incorporated in the synthesized complementary strand; 3' TTTTT single-stranded linker to array surface; dsDNA, one strand shown
# Summary of the method: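 Binding signal here means per-feature fluorescence intensity in arbitrary units. The values were read on an Axon 4000B scanner after a custom Agilent array, double-stranded by primer extension with Cy5-dUTP, was incubated with 200 nM protein at 25 °C for 1 h in PBS with 2% BSA, salmon testes DNA and 50 µM zinc acetate, then washed. The proteins were transcription factors with an N-terminal polyhistidine tag and DsRed, expressed in E. coli BL21-CodonPlus and purified on Ni–NTA.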
row,Sequence,binding signal
1,TGTGCTCTCGTCTCTCTCCTCGCTTAAATCCTCGCCACCCCGGAGTCACCTAGTGCAG,11100 fluorescence intensity (a.u.)
2,CTCTCCTATAAATCTCGCCGGCCGTCCTCACATCAGCGCACGGAGTCACCTAGTGCAG,9650 fluorescence intensity (a.u.)
3,GGAAAAATACTACCCGTCCTCTGCTTCTCTCTTTCTTTCTCGGAGTCACCTAGTGCAG,8870 fluorescence intensity (a.u.)
4,GGATTTTAGAACTTGCAGCCTCGTATTTTTATTTATGCTTCGGAGTCACCTAGTGCAG,11700 fluorescence intensity (a.u.)
5,CGGATGGGGCTAAGGTCGTCGGGGTAGGCGGCGCGGACATCGGAGTCACCTAGTGCAG,10900 fluorescence intensity (a.u.)
6,ATCAACCGCCGTCTCTTCCATTCTCAACTCCAATCCTCATCGGAGTCACCTAGTGCAG,9690 fluorescence intensity (a.u.)
7,CTATAGCTCAACAAATGGTTTCGCTCGTCACTCTTTCTTTCGGAGTCACCTAGTGCAG,8050 fluorescence intensity (a.u.)
8,TCGTCACGCTGTTATTCTCTCTTCGATTTGTTTATCAATTCGGAGTCACCTAGTGCAG,8600 fluorescence intensity (a.u.)
9,CACACCTCACAACGCCCCTTACGCCCACGCGAGCGAACCCCGGAGTCACCTAGTGCAG,8240 fluorescence intensity (a.u.)
10,GCCCACATCCATCCCGTCACCCGCCCACTCGCCGTCGCACCGGAGTCACCTAGTGCAG,10300 fluorescence intensity (a.u.)
11,CTGCCGAAGCAACGGATCTGAATCTACGTACCGAGCTTGTCGGAGTCACCTAGTGCAG,64600 fluorescence intensity (a.u.)
12,CTCTCGCCTCGCCTCGGCGTCGCGCGCCGCGCGCCGTTTTCGGAGTCACCTAGTGCAG,9580 fluorescence intensity (a.u.)
13,TCCGTATTTTAATGTATGACGCCGTTGACTTTTTATCCAACGGAGTCACCTAGTGCAG,21400 fluorescence intensity (a.u.)
14,TTCGCGCGCAACTCCTTAAACCCTAGCCGCCGCCGCCGCCCGGAGTCACCTAGTGCAG,9270 fluorescence intensity (a.u.)
15,CCAGTCACCACCATGAACTTATTGCCATTGACCTGCTTACCGGAGTCACCTAGTGCAG,9360 fluorescence intensity (a.u.)
16,TTCTGGTTTGCTTCAATGGCTTGAATTCACAAAACTTAGTCGGAGTCACCTAGTGCAG,9640 fluorescence intensity (a.u.)
17,GGTGTGTTTGGTTGGGTGGATGAACTCGGATGGGAGATGGCGGAGTCACCTAGTGCAG,10800 fluorescence intensity (a.u.)
18,CTATCTACCACAAGGCCAAGTTACGTTAGACCGTTTTGATCGGAGTCACCTAGTGCAG,8660 fluorescence intensity (a.u.)
19,AATATGGCCCGTTATCATCACCATTGGTTCCTACAGTAGTCGGAGTCACCTAGTGCAG,8510 fluorescence intensity (a.u.)
20,CGTCGACCCACTGCTGCCGGCCTCGCGAGTTCACCCACCACGGAGTCACCTAGTGCAG,8310 fluorescence intensity (a.u.)
21,CCTCCCGATCGACGCCTTCTGCTGCTTCTGATTCGCCGCTCGGAGTCACCTAGTGCAG,8500 fluorescence intensity (a.u.)
22,CCATCGCTGTCGCCAATTTATATTCTTTCTTAATCTCGACCGGAGTCACCTAGTGCAG,9220 fluorescence intensity (a.u.)
23,CCGCCTACCACCCGTGCCCCGACCCATTACATGTGCACACCGGAGTCACCTAGTGCAG,11600 fluorescence intensity (a.u.)

# Some of the entries so far, with tabs.
row	Sequence	binding signal
4	GGATTTTAGAACTTGCAGCCTCGTATTTTTATTTATGCTTCGGAGTCACCTAGTGCAG	11700 fluorescence intensity (a.u.)
18	CTATCTACCACAAGGCCAAGTTACGTTAGACCGTTTTGATCGGAGTCACCTAGTGCAG	8660 fluorescence intensity (a.u.)
